# Source: the supplement of paper PMC10849652
# The chains behind the UniProt entries cited, without tags or fusion partners. Where a name states a change or a piece, a line headed by the entry shows the natural chain unless it says otherwise.
# UniProt P31930: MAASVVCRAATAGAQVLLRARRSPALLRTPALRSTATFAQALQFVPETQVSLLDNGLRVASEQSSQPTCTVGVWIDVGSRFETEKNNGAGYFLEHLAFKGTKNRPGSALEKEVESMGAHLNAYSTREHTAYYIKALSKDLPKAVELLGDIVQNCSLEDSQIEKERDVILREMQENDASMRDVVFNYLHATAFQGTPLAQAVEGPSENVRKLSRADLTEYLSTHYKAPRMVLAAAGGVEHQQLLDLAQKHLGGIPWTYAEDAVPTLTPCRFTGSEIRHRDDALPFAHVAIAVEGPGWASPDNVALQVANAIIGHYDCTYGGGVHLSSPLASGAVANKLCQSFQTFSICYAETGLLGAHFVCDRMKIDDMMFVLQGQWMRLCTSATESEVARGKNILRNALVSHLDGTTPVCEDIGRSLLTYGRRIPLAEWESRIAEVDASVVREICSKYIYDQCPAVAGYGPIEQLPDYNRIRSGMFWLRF
# UniProt O60701: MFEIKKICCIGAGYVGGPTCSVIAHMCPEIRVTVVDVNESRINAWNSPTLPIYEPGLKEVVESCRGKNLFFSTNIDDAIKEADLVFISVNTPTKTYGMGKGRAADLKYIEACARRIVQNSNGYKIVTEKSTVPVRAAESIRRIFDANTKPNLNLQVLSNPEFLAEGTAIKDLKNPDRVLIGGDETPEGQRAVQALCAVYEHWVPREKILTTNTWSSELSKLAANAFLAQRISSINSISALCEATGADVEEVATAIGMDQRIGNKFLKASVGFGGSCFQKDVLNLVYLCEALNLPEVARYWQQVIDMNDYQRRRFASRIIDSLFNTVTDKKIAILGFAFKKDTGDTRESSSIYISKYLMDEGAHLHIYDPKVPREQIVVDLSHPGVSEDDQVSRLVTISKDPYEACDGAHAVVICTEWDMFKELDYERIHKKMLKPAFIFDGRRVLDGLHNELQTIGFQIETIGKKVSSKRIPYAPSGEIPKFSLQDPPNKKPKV
# UniProt Q9BRT2: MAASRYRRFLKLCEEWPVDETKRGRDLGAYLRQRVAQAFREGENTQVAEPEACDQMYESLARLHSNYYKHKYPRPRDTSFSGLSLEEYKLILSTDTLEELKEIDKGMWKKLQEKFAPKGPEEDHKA
# UniProt Q9UHP3: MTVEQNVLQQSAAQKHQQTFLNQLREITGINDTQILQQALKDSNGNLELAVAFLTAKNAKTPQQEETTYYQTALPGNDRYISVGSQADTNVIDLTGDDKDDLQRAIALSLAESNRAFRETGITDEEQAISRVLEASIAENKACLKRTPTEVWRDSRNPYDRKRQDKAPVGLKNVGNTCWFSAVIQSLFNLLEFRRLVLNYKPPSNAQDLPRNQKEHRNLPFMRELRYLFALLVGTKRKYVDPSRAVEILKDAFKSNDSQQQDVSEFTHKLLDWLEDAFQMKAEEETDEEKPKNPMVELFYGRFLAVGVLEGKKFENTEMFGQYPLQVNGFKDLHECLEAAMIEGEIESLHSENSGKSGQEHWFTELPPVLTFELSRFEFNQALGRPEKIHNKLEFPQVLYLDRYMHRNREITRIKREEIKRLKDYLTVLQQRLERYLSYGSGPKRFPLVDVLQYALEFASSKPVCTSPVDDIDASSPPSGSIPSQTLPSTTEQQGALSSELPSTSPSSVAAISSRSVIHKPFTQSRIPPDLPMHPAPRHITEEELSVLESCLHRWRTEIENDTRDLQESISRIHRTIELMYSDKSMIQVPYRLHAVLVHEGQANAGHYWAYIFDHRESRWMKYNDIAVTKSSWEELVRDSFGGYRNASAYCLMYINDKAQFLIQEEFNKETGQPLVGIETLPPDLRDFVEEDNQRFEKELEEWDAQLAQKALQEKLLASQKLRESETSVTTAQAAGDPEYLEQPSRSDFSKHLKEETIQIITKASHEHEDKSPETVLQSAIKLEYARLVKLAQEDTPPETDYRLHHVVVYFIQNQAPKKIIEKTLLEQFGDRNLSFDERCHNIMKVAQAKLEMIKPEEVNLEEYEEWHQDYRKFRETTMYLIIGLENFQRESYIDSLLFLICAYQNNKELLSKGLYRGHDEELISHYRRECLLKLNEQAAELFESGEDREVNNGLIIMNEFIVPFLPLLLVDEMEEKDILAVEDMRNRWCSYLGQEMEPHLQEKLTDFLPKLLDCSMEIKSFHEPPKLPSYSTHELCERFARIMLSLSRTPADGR
# UniProt Q8IZJ1, whole entry, looked up: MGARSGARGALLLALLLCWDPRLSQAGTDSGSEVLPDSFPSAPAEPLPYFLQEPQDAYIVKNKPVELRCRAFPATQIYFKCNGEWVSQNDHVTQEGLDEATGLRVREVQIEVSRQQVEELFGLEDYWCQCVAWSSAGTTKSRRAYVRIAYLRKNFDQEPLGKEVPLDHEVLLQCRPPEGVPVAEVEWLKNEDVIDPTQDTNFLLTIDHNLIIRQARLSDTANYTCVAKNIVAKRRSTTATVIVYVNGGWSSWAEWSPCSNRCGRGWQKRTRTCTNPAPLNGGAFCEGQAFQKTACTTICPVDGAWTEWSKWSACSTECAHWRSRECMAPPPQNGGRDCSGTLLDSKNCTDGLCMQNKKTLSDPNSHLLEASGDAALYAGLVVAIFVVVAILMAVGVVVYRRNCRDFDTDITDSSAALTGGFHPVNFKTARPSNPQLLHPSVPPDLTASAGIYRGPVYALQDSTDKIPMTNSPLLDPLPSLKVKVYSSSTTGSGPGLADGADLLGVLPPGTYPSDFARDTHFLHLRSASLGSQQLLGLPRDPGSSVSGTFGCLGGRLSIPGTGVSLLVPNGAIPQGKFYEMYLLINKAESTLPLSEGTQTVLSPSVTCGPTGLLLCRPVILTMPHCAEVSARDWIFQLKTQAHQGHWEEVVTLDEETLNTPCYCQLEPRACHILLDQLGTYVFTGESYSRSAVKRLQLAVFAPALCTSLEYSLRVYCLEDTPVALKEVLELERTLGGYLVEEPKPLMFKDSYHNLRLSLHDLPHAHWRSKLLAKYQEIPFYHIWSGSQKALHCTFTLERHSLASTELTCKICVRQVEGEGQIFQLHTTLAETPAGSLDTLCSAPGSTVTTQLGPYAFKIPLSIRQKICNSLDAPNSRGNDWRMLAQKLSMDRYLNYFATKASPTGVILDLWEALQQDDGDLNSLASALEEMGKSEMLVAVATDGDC
# UniProt O14949: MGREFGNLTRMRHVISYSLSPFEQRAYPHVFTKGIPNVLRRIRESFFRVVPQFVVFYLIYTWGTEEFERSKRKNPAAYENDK
# UniProt Q93009, whole entry, looked up: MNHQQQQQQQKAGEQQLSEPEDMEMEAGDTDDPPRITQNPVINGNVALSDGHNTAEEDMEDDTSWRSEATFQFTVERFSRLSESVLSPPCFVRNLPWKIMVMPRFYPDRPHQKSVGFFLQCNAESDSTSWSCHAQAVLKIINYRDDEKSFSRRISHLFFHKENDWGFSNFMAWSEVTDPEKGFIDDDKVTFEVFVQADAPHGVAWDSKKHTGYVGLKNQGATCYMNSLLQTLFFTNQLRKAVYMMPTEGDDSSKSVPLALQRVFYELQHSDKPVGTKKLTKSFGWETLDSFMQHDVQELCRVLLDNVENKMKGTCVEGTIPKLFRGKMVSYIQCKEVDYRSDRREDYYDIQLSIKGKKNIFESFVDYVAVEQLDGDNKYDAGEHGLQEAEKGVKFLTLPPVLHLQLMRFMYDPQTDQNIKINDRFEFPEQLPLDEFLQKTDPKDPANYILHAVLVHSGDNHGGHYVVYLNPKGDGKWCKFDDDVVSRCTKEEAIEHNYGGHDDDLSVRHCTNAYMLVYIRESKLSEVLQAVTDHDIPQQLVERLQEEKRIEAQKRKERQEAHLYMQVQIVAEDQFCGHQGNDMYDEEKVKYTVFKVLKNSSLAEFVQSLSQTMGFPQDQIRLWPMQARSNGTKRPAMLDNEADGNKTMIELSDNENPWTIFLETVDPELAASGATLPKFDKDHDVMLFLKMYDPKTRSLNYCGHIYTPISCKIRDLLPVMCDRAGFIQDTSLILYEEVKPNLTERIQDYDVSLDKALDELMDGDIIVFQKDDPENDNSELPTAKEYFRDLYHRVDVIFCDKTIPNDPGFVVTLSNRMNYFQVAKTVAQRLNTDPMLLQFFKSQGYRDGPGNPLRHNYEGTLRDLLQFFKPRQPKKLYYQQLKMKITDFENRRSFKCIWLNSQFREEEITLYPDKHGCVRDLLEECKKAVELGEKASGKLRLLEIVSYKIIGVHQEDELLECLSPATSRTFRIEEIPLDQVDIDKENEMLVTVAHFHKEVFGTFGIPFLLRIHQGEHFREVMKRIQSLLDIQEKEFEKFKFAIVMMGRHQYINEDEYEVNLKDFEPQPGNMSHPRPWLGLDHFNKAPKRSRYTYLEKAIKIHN
# UniProt Q9BV40: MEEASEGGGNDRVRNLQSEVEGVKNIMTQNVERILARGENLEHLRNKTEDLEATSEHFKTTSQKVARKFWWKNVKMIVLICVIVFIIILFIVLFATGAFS
# UniProt Q9NZ43: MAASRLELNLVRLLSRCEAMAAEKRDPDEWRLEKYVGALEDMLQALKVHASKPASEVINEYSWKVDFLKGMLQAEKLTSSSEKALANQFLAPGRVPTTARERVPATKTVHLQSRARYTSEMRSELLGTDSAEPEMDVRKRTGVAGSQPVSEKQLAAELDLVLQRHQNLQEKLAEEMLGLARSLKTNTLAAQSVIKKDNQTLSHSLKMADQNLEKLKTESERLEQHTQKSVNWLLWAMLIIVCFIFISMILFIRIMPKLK
# UniProt O94966: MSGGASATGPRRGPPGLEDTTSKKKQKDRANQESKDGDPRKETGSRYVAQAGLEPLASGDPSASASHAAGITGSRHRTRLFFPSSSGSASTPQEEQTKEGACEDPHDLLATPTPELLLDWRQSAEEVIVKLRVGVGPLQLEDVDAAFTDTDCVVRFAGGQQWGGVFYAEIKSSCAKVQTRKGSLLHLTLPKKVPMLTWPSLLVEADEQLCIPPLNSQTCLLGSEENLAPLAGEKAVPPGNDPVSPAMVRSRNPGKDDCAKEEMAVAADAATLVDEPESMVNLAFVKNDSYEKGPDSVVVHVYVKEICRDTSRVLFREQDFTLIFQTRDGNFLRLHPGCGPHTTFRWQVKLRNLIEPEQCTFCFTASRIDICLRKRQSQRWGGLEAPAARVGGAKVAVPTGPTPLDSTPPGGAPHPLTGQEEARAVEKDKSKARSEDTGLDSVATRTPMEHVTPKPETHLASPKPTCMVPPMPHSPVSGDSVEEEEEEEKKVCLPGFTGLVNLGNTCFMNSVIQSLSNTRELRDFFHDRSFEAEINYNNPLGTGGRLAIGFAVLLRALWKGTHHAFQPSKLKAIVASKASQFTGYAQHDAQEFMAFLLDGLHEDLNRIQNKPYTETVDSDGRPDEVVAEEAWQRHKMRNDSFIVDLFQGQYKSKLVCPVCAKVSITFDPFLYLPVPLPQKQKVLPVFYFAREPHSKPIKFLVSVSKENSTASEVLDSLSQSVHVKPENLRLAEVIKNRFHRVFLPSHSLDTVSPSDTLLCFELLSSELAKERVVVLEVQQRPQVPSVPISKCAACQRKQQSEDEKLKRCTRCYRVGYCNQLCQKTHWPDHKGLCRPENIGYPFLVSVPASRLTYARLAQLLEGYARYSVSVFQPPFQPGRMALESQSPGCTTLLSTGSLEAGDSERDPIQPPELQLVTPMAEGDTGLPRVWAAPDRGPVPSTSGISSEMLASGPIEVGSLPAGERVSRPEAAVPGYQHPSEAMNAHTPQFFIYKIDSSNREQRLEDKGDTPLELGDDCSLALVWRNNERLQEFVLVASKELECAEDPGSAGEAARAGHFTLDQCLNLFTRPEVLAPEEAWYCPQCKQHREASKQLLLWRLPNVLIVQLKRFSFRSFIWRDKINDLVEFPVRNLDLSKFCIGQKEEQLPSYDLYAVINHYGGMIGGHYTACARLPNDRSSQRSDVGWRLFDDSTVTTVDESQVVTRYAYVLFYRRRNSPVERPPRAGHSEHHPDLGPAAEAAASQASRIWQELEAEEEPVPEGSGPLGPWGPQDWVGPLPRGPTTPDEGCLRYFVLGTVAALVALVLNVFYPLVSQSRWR
# UniProt Q9BZI7: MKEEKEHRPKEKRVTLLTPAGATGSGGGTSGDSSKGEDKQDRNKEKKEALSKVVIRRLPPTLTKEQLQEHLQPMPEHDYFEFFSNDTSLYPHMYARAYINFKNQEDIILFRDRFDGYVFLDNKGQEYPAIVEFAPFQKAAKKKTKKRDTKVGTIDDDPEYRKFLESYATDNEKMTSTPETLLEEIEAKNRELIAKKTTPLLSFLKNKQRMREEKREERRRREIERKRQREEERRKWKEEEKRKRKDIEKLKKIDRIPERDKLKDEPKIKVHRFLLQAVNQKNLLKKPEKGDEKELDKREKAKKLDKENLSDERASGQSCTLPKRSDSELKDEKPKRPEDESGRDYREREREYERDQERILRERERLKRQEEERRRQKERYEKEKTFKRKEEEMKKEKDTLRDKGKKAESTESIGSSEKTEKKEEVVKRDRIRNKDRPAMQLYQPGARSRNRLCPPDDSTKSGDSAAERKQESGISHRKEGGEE
# The list shows a part of the results.
# Legend:
# Assay in all cases: log2 fold change, soluble protein after heating vs DMSO (PISA); higher = thermal stabilisation; K562 lysate, 10 uM; active = over 0.2 and 3.5 SD of the protein, either way, in both replicates (recomputed)
# [1] = compound: C=CC(=O)N1CCC[C@@H](n2nc(-c3ccc(Oc4ccccc4)cc3)c3c(N)ncnc32)C1 [ibrutinib]
# Summary of the method: (§1)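 To prepare the extract, K562 pellets were dounce-homogenised in PBS pH 7.4 with 1 mM MgCl2, giving crude material at 1 mg/mL protein. This was treated with 10 μM compound for 30 min, then heated in aliquots for 3 min over 48°C-58°C before pooling and addition of NP-40 to 0.5% at 4°C. Centrifugation at 21,000xg for 90 min left soluble protein in the supernatant, which TMTpro 16plex LC-MS/MS quantified with equalised channel sums. Results are log-two fold changes in thermal stability compared with solvent controls, from duplicates.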
# [2] = compound: CC(=O)c1cnc2ccc(-c3cc(Cl)c(O)c(Cl)c3)nc2c1N[C@H]1CC[C@H](CN(C)C)CC1
# Summary of the method: as §1
# [3] = compound: CC(C)(C)Cn1c(N)nc2ccc(-c3[nH]c(C(C)(C)C)nc3-c3ccc(F)cc3)nc21 [ralimetinib]
# Summary of the method: as §1
# [4] = compound: CC(C)(O)CC(=O)NCCn1ccc2ncnc(Nc3ccc(Oc4cccc(C(F)(F)F)c4)c(Cl)c3)c21
# Summary of the method: as §1
# [5] = compound: CC(C)C1=C2N=C(C=C(N2N=C1)NCC3=CC=CC=C3)NCCCCCCN
# Summary of the method: as §1
# [6] = compound: CC1=C(C(CC(=O)N1)C2=CC=C(C=C2)C(F)(F)F)C(=O)NC3=C(C=C4C(=C3)C=NN4)F
# Summary of the method: as §1
# [7] = compound: CC1=C(C2=C(C=C1)C(=O)C3=CC=CC=C3N2CCCN)C
# Summary of the method: as §1
# [8] = compound: CC1=C(C=C(C=C1)NC(=O)C2=CC(=CC=C2)C(C)(C)C#N)NC3=CC4=C(C=C3)N=CN(C4=O)C
# Summary of the method: as §1
# [9] = compound: CC1=C(C=C(C=C1)NC(=O)C2=CC(=CC=C2)N(C)C)NC(=O)C3=CC=C(C=C3)O
# Summary of the method: as §1
# [10] = compound: CC1=CC=C(C=C1)SC2=C3C=C(SC3=CN=C2)C(=O)N
# Summary of the method: as §1
Target,log2 fold change [1],log2 fold change [2],log2 fold change [3],log2 fold change [4],log2 fold change [5],log2 fold change [6],log2 fold change [7],log2 fold change [8],log2 fold change [9],log2 fold change [10]
USP15 (UniProt Q9Y4E8),inactive: -0.013,inactive: -0.001,inactive: 0.001,inactive: 0.007,inactive: -0.008,inactive: -0.009,inactive: 0,inactive: -0.032,inactive: 0,inactive: 0.018
UQCRC1 (UniProt P31930),inactive: 0,inactive: 0.001,inactive: -0.009,inactive: -0.014,inactive: -0.006,inactive: -0.021,inactive: -0.005,inactive: 0.036,inactive: -0.022,inactive: -0.021
USP39 (UniProt Q53GS9),inactive: -0.023,inactive: -0.009,inactive: 0.025,inactive: -0.046,inactive: 0.011,inactive: -0.013,inactive: 0.03,inactive: 0,inactive: 0.021,inactive: -0.009
UHRF1BP1L (UniProt A0JNW5),inactive: 0.031,inactive: 0.046,inactive: 0.001,inactive: -0.008,inactive: -0.005,inactive: 0.105,inactive: -0.01,inactive: 0.08,inactive: 0.011,inactive: -0.046
UGDH (UniProt O60701),inactive: 0.02,inactive: 0.02,inactive: 0.085,inactive: -0.004,inactive: -0.004,inactive: 0.019,active: 0.215,inactive: -0.037,inactive: 0.058,inactive: 0.031
USP48 isoform 8 (UniProt Q86UV5),inactive: -0.02,inactive: -0.014,inactive: 0.004,inactive: 0,inactive: -0.005,inactive: 0.007,inactive: -0.005,inactive: 0.001,inactive: 0,inactive: -0.01
USP4 (UniProt Q13107),inactive: 0.012,inactive: 0.023,inactive: 0.018,inactive: 0.028,inactive: -0.043,inactive: 0.019,inactive: 0.006,inactive: 0.007,inactive: 0.029,inactive: 0
UCKL1 (UniProt Q9NWZ5),inactive: 0.024,inactive: 0.017,inactive: 0.108,inactive: 0.03,inactive: -0.024,inactive: 0.016,inactive: 0.039,inactive: -0.016,inactive: 0.059,inactive: 0.027
UQCRC2 (UniProt P22695),inactive: -0.022,inactive: 0.001,inactive: 0.005,inactive: -0.04,inactive: -0.005,inactive: -0.001,inactive: 0.012,inactive: 0.029,inactive: 0.003,inactive: -0.013
VAPB (UniProt O95292),inactive: -0.027,inactive: -0.043,inactive: -0.003,inactive: 0.005,inactive: 0.007,inactive: -0.02,inactive: 0.019,inactive: -0.02,inactive: -0.004,inactive: -0.039
USP34 (UniProt Q70CQ2),inactive: 0.002,inactive: 0.006,inactive: 0.011,inactive: -0.027,inactive: 0.001,inactive: -0.001,inactive: -0.032,inactive: 0.014,inactive: 0.026,inactive: 0
UQCC2 (UniProt Q9BRT2),inactive: 0.054,inactive: 0,inactive: 0.006,inactive: 0.01,inactive: 0.018,inactive: -0.022,inactive: 0.016,inactive: 0.007,inactive: -0.016,inactive: -0.012
USP25 (UniProt Q9UHP3),inactive: 0.005,inactive: 0.012,inactive: 0.04,inactive: -0.008,inactive: -0.002,inactive: -0.007,inactive: -0.003,inactive: 0.009,inactive: 0.011,inactive: 0.004
UFL1 (UniProt O94874),inactive: -0.033,inactive: 0.011,inactive: -0.015,inactive: -0.002,inactive: -0.035,inactive: -0.007,inactive: 0.053,inactive: -0.016,inactive: 0.039,inactive: -0.042
UNC5B (UniProt Q8IZJ1),inactive: 0.037,inactive: -0.232,inactive: -0.012,inactive: -0.016,inactive: 0.044,inactive: 0.203,inactive: 0.004,inactive: 0.017,inactive: -0.003,inactive: 0.127
UMPS (UniProt P11172),inactive: 0.006,inactive: -0.024,inactive: 0.021,inactive: -0.002,inactive: -0.011,inactive: 0.009,inactive: 0.034,inactive: -0.01,inactive: 0.009,inactive: -0.003
UQCRQ (UniProt O14949),inactive: -0.018,inactive: -0.015,inactive: -0.009,inactive: -0.026,inactive: 0.021,inactive: 0.005,inactive: -0.01,inactive: 0.029,inactive: -0.018,inactive: -0.015
USF2 (UniProt Q15853),inactive: -0.007,inactive: 0.013,inactive: 0.008,inactive: 0.002,inactive: 0.029,inactive: -0.051,inactive: 0.006,inactive: -0.041,inactive: 0.009,inactive: -0.045
UNC45A (UniProt Q9H3U1),inactive: 0.002,inactive: -0.008,inactive: 0.03,inactive: -0.012,inactive: -0.009,inactive: -0.007,inactive: 0.002,inactive: 0.004,inactive: 0.002,inactive: -0.007
UPF2 (UniProt Q9HAU5),inactive: 0.006,inactive: 0.026,inactive: 0.002,inactive: -0.01,inactive: 0.038,inactive: 0.007,inactive: -0.045,inactive: -0.004,inactive: 0.021,inactive: 0.043
USP7 (UniProt Q93009),inactive: -0.007,inactive: -0.005,inactive: 0.029,inactive: 0.006,inactive: -0.005,inactive: -0.005,inactive: 0.009,inactive: 0,inactive: 0.016,inactive: 0.001
VAMP8 (UniProt Q9BV40),inactive: 0.067,inactive: -0.035,inactive: -0.004,inactive: -0.053,inactive: -0.012,inactive: -0.016,inactive: -0.035,inactive: 0.016,inactive: -0.011,inactive: 0.003
VAC14 (UniProt Q08AM6),inactive: -0.029,inactive: -0.025,inactive: -0.003,inactive: -0.055,inactive: 0.002,inactive: -0.008,inactive: 0.005,inactive: 0.003,inactive: 0.039,inactive: -0.034
UTP20 (UniProt O75691),inactive: 0.017,inactive: 0,inactive: -0.01,inactive: 0.03,inactive: -0.002,inactive: -0.017,inactive: -0.053,inactive: -0.042,inactive: 0,inactive: 0.018
UNC93B1 (UniProt Q9H1C4),inactive: -0.197,inactive: 0.077,inactive: 0.005,inactive: -0.063,inactive: -0.016,inactive: -0.039,inactive: 0.051,inactive: 0.175,inactive: 0.063,inactive: -0.202
USO1 (UniProt O60763),inactive: -0.06,inactive: -0.008,inactive: -0.203,inactive: 0.155,inactive: 0.053,inactive: 0.013,inactive: 0.075,inactive: -0.021,inactive: 0.089,inactive: 0.062
USE1 (UniProt Q9NZ43),inactive: -0.039,inactive: -0.026,inactive: -0.095,inactive: -0.102,inactive: -0.086,inactive: 0.024,inactive: -0.025,inactive: -0.007,inactive: 0.007,inactive: 0.027
USP19 isoform 6 (UniProt O94966),inactive: 0.016,inactive: 0,inactive: 0.023,inactive: -0.042,inactive: -0.003,inactive: 0.015,inactive: 0.009,inactive: -0.008,inactive: -0.015,inactive: -0.001
UPF3B (UniProt Q9BZI7),inactive: -0.011,inactive: 0.024,inactive: 0.007,inactive: -0.006,inactive: -0.021,inactive: 0.018,inactive: -0.04,inactive: 0.008,inactive: -0.001,inactive: -0.003
UNC13D (UniProt Q70J99),inactive: -0.043,inactive: -0.005,inactive: 0.031,inactive: -0.014,inactive: 0.018,inactive: 0.016,inactive: 0.015,inactive: 0.012,inactive: 0.025,inactive: -0.015

# Pulled one by one from the list above (two):
Target,log2 fold change [1],log2 fold change [2],log2 fold change [3],log2 fold change [4],log2 fold change [5],log2 fold change [6],log2 fold change [7],log2 fold change [8],log2 fold change [9],log2 fold change [10]
USP19 isoform 6 (UniProt O94966),inactive: 0.016,inactive: 0,inactive: 0.023,inactive: -0.042,inactive: -0.003,inactive: 0.015,inactive: 0.009,inactive: -0.008,inactive: -0.015,inactive: -0.001
UNC93B1 (UniProt Q9H1C4),inactive: -0.197,inactive: 0.077,inactive: 0.005,inactive: -0.063,inactive: -0.016,inactive: -0.039,inactive: 0.051,inactive: 0.175,inactive: 0.063,inactive: -0.202
